Source: paper PMC10080908
Results are given in words; binding and its absence hold for the method and conditions named.

Molecular target: T1, UBXN7-∆UAS (∆137-260) (human) (UniProt O94888)
T1 sequence: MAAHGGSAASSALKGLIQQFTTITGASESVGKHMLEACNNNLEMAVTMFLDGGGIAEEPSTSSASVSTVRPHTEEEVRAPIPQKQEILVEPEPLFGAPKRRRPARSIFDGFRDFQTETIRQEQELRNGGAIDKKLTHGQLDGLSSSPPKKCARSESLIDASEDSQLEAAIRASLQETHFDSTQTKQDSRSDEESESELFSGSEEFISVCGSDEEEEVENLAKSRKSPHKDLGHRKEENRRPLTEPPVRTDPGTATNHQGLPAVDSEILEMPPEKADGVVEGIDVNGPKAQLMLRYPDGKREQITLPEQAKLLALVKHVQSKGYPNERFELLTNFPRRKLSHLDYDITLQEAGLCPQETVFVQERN
Experiment: condition: 200 µM RNF111 RING domain titrated into 15 µM UBXN7-∆UAS; ITC; VP-ITC; 200 µM RNF111 RING domain injected (20 x 10 µl) into 10 µM UBXN7-WT or UBXN7-UAS, or into 15 µM UBXN7-∆UAS, in the cell; 25 °C; phosphate-buffered saline pH 7.4, 1 mM TCEP; single binding site model; both purified

Substance: RNF111 RING domain (RNF111-RING, aa 895 to Cter) (human) (domain or fragment)
- binding: no binding
